The exact form of at least one protein or probe is not confirmed. Weaker means in comparison with the reference protein, sequence or condition of that experiment. Protein sequences can lack the tags named with them.

The data set addresses T1, Zur (His6-Zur) (Sinorhizobium fredii CCBAU45436) (UniProt C3MDK7).
T1 sequence (looked up, limits assumed): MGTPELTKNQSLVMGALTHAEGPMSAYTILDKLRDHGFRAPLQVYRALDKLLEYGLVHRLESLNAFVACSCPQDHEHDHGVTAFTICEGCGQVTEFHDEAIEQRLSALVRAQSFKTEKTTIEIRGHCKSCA
The experiment in a line: EMSA. Conditions: 200 uM ZnSO4 + 50 uM TPEN; 10 mM Tris pH 7.5, 50 mM KCl, 1 mM DTT, 1 ug poly(dI-dC), 200 uM ZnSO4, with or without 50 uM TPEN, ~50 fmol probe in 15 ul, 25 C 20 min; 5% native PAGE in TB at 4 C; recombinant protein; protein details: N-terminal His6 (pET-28a(+), BamHI/HindIII). On the technique in general: A gel shift assay detects complexes by their altered migration in electrophoresis.

As for “GCGACTGCGTCGTGTAATGTTATTACATCAATTGCGTTATGCTATAACGTGTGCAATAGC (double strand) [znuA promoter Zur box probe]”, the binding result is reported as “binds more weakly”.

For the origin of these results see paper PMC7029138, “Modulation of Symbiotic Compatibility by Rhizobial Zinc Starvation Machinery”.
